Drawing on publication PMC4024641, this text covers binding for five molecules.

Experiment in all cases: affinity purification with mass spectrometry; 3×FLAG- or 13×myc-tagged bait purified from S. pombe cell extract on α-FLAG (M2) or α-myc (9E10) antibody cross-linked to Protein G Dynabeads, 4°C for 3 h, IP buffer (20 mM HEPES pH 7.5, 100 mM NaCl, 5 mM MgCl2, 1 mM EDTA, 10% glycerol, 0.25% Triton X-100, 0.5 mM DTT); LC-MS/MS; Red1-3×FLAG also from iss10Δ, rmn1Δ and Mtl1 knockdown cells

One assay has as its target T1, Rmn1-13×myc (S. pombe) (UniProt Q9USP9).
T1 sequence: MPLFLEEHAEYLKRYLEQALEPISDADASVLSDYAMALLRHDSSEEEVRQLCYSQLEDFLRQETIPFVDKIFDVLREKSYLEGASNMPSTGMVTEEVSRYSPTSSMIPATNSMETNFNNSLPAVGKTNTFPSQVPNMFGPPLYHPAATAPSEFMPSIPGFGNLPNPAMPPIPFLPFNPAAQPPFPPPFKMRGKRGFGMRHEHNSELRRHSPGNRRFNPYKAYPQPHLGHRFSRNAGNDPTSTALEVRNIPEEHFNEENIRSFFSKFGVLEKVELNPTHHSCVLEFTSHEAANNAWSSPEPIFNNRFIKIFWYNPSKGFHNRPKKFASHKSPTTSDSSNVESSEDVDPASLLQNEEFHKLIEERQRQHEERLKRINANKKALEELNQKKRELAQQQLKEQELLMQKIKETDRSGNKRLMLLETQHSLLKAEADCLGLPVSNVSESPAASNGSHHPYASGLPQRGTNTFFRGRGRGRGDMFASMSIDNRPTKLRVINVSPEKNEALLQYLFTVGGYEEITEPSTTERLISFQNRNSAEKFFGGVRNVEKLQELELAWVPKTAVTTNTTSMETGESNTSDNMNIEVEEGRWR

For a further assay, the target named is T2, Ars2-3×FLAG (S. pombe) (UniProt O94326).
T2 sequence: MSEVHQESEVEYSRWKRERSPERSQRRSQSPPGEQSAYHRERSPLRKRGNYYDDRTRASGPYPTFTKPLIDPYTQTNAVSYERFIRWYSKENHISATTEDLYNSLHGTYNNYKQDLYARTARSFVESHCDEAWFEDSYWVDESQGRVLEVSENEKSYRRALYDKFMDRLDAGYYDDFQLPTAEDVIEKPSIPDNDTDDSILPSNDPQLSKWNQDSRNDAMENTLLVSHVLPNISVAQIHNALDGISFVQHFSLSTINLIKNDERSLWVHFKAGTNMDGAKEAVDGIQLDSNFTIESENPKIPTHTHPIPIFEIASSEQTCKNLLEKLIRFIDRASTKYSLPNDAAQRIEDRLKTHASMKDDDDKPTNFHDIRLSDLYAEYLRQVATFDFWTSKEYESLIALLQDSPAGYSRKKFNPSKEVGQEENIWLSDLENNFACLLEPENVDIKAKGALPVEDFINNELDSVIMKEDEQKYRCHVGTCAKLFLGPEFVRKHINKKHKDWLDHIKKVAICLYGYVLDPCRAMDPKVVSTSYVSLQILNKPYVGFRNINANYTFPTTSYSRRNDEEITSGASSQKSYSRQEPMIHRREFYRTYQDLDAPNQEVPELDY

The next assay concerns the target T3, Mtl1-3×FLAG (S. pombe) (UniProt O13799).
T3 sequence: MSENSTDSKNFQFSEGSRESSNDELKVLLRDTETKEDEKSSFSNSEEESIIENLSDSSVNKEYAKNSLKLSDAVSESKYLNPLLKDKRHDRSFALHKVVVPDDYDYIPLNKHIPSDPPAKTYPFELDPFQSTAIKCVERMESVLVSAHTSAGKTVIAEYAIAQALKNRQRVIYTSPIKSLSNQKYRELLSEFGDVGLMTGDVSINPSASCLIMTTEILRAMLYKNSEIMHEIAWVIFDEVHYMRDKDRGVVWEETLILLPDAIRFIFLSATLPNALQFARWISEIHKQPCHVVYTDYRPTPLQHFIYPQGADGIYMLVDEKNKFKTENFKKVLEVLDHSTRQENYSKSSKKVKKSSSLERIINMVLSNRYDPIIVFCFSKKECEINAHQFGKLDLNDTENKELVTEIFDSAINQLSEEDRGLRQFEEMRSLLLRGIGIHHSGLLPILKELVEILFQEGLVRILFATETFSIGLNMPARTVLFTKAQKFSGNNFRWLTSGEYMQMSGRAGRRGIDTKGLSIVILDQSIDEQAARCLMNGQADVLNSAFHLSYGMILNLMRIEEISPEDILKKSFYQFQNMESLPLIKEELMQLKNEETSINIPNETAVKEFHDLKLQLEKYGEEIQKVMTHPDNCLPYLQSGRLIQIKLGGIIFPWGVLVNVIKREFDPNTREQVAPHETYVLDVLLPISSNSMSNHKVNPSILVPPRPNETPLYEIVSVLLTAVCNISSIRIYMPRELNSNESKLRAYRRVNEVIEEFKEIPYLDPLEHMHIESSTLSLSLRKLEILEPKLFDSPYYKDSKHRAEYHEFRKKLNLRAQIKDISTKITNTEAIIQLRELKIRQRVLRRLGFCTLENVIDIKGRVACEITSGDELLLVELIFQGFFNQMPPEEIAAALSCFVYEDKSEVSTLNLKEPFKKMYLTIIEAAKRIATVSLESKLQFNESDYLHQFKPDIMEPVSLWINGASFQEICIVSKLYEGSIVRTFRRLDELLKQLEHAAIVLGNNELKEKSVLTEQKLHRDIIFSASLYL

These are yes or no findings as the source states them, for the method shown. In cells and extracts the contact can be indirect. A yes stands for co-enrichment or nearness to the bait. Other partners may have been found. Sequences can lack the tags named with a protein.

B1: Rsm1 (protein, UniProt O94506 1-296)
chain: MSFPTDMETNEILDQLDKIDERNEDILLKSLKASKCTYKPWSREEFLRRLLTYRSRWAYVNDPQIGEINCCLNGWLCESNNILVCDVCRNKINLTALQQVDAENDSLNELPEKTKERLEVSLKEEHQDNCLWRLHKFPPDIYHLSVSAELVQVGRRFNSLSTRLVSTHLPEEMTLKRLEKVANKIRVDWEKEDAAVLLGIALTGWSEQVPGRLYVCNYCHRRLGVWNLQSEGQDFDVLEEHKKSCPWVIPQPFTDLLGWQQIFELLCKESIFQSTTKTMDVSQYTDYTFSLLQGLR
As to B1, in the assay with Rmn1-13×myc (S. pombe), the binding result was “binds”.

B2: Red1-3×FLAG (protein, UniProt Q9UTR8 1-712)
chain: MSRSINLDELRKKALESKKKNEEDESNDSDKEDGEISEDDPVIDQSNSVPPMKVPTFPEQIPQLPPFDRFPGTNANFFPFGAPFMLPPALMFGPNTVPFFPQTASSNKTFSKRKRSSENSFNNRNKAKSSETSDSSNTSQSFKENRALKDTATSRPLALSSDTSYQKSEKAKSEKSPFLSTSKNSDANYSKTTNQKEAEKAVSQLFEVGVRFNDFIAEGIEPSVVHTLFLKLGLDSSSASSQGSLTLSADKAARSAKLRKIDSNLSDTHILPGDNGTPTVLPERKNLISLPLLKQDDWLSSSKPFGSSTPNVVIEFDSDDDGDDFSNSKIEQSNLEKPPSNSENGLTMSRSDYLALLRNKEEEIRRMTKLILRLESNKKPYRSPTSAADMKLPSVPVAAVDNKSKTHLDTFEKVVDLSSKADFVEAGPSISSSGASSSAATTNSDTTEQILEAPWLRKTEQIAVVHEEHPAQIKKSEIDILNNLIEKEEGELTKYQTLVKSKTEILTQLYTRKKQLLEQQGKGNVACLPKESDLSMDSITEVSAQADENSSQILSSKTSNAPNGTTETDFEDKVPLVDYISPFYRFKSYRFNQQFVERVPLKYRSLTYSNKIEPMKVFCKYETTGGVCNDDHCEASHFRDIKMTDDEIIQDLSRYIEGNDEIEKESYKSGLDIVMKNTDENTDFVDVATRIVEYHNLWKSERMTIPVAKVSI
In the case of B2, the binding entry with Ars2-3×FLAG (S. pombe) and in the assay with Rmn1-13×myc (S. pombe) was “binds” throughout.

B3: Kap123 (protein, UniProt O60100 1-1067)
chain: MDAQFTLELTQLLFQSIAPDTTQITEATRALETKYLKEPGSLLSLFHIMGTCENPQVRQLAAIEARKLCHKYWSSVDADVQNQIRSNLLDITLKEPESIVRHAFGRVIAALAKLDLPEGKWNELSAFLVQATMDQNDSIREMAVYVLYSIAETVDLDNKLLLDFVNLFSQTITDSSRTVRVTSVQGLGAIAEVLESDDKKLLHAYRATLPGMLLVLQDVVQVGDVDASKQVFDVFNTFLIASGAIISKALGNIIEIITGIANSKQVDDEIRCMALSFIISCIRFKSRKLQALKLGKPLVLTLMEVATEETTDDIDEDCPARLALRSIDLLSTHLSPSQVFYPMFEAACAFSQSPQASYRKAALLSIGVAVEGSSESVAGNLPNIFPIIINGLCDNDMDVRQAALLALSQIAVEIPTEVSKHHAQLLPLVFELMSTQGVKVGKSACNCIDALLEGLDKSEISGYLPMLMERLVGLLEFSDTPDIKSCVAAAIGSAAFAAQDDFIPYFERTMASLSQCLHTTDDDEGYELRGTVMDTLGAIANAVGKQAFLPYTEQLIQLAYEGIQIDHSRLRECSFCFYAVLARVYKEEFAPFLEHIVPALFKSIDQDESDILSERIGAPTAEEISQLLDSVETNEEENDEELEKAMGVNSAIAMEKEIAADALGEICMYVGAPFTPYLEPTVEKLVACTTHFYEGVRKSALSSLWRCATTYYKVCNVPQWQPGLPLKVPVPDTVKNIFEAVRKCTFDTLEEEYEKTVATDILRNFAESIKTCGPVVLGDDYEKLCEVVMEVLQKQHIVQAGDVFDDDFEEEDIVSNEEVDDTEQDALLIDSACDVVIALAVALGGSFADSFKVFYPQIVKYYMSKNGNERAMAVACVGEVAGGIESAITPFTRDVFSLFMAALEDSEGEVRSNAAYSMGLLCQFSTEDLSSEYLNILQKLQPFFTQEVFRTALDNAIGCISRLILHNQNAIPVDQVLPIVFSKLPLKEDYLENAPLYHMILALYRQQNPCLVQHLGELIPVFASVLTGSPEQLNDELRSELLSMVKEIAPQYESVVSNYPQLVALLQ
With B3, the binding result in the assay with Rmn1-13×myc (S. pombe) is “binds”.

B4: Nab2 (protein, UniProt O13713 1-307)
chain: MTTLLETPGYSEKLHDSIEKKLSEYGWGEEAASLADFVLVMLSNGKTQTEINEELVDLIGSDFDTSFSLWLFNQIEELEKSKNASVESVSKIDEIDFIEKESTDKSQQSFSVPETSIQPQSSQTPNITSLREEKELPTGRVGQKLKLTSQKQRFNPMAASFNYSKSVMPAAKRALTQTQEVPLCKYADKCSRANCIFAHPTPAAAPGEGMVLSSEMCASGKECKAADCVKGHPSPATVTTLPPFMSMSTIPIPCKYKPCLNPACRFIHPTKSRNMTWRPPSKTEETSLSERSFAVNESEEQLHVPSV
Turning to B4, in the assay with Mtl1-3×FLAG (S. pombe), the binding result is recorded as “binds”.

B5: Red5-3×FLAG (protein, UniProt O74823 1-376)
chain: MNEQQLLENIASLAGAINQYKNEKEPTQVLDAAKANKNTRSYPYSVSRNYSFILNKSNRSKSTAASPPYVIPSTSSNADDANKEPEKQSTSDYVSRKNRHMQLIKKNILEHDLQARKANLESYRAKLEKEYKTLAENKIQQRLSDGTKQLVTIDGLQYITGVSDTKWLEFVSAKGQCPKYLYWNNKSYLLKKKRFLKEVGNSPSAVYCRYYNANGICGKGAACRFVHEPTRKTICPKFLNGRCNKAEDCNLSHELDPRRIPACRYFLLGKCNNPNCRYVHIHYSENAPICFEFAKYGFCELGTSCKNQHILQCTDYAMFGSCNNPQCSLYHGAVSADVPEQTEAPISKTAGSINPEDSGSEIGSNSLESNLDFISV
In the case of B5, the binding result with Rmn1-13×myc (S. pombe) and with Mtl1-3×FLAG (S. pombe) was “binds” in each case.
